Laboratory results: PubChem BioAssay AID686943 (Drosophila RNAi Screening Center, 2013)
Purpose: 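Knockdowns that increase or decrease active ERK after insulin receptor stimulation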 (primary screen). System: Drosophila S2R+ haemocyte-like cells expressing YFP-tagged ERK (Rolled). Reagents: long dsRNA against Drosophila genes. Challenge: insulin stimulation versus unstimulated cells; dose and duration not given. Detection: 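Antibody staining for doubly phosphorylated ERK divided by ERK-YFP signal, as plate z-scores, in insulin-treated and untreated cells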. Scale: replicate 1, z-score of dpERK with insulin and replicate 2, z-score of dpERK with insulin: higher = more active ERK per ERK-YFP after insulin.
The deposit covers about 23,000 reagents; below is a random part of those that have a named target and a result. 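Extra replicates exist only for a retested subset of genes; insulin dose and duration not given; both raised and lowered dpERK matter.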 Reagents against one gene are numbered here. A plus sign joins genes that one reagent is predicted to hit. Not all columns of the deposit are shown. Not given: the amount of reagent, the time to read-out.

{"target": "CG5506", "reagent": 1, "replicate 1, z-score of dpERK with insulin": 1.14, "replicate 2, z-score of dpERK with insulin": 0.82}
{"target": "CG14839", "reagent": 1, "replicate 1, z-score of dpERK with insulin": 1.08, "replicate 2, z-score of dpERK with insulin": -0.53}
{"target": "CG18258", "reagent": 1, "replicate 1, z-score of dpERK with insulin": -0.98, "replicate 2, z-score of dpERK with insulin": -0.62}
{"target": "CG12239", "reagent": 1, "replicate 1, z-score of dpERK with insulin": -0.14, "replicate 2, z-score of dpERK with insulin": -0.17}
{"target": "alpha-Man-Ic", "reagent": 1, "replicate 1, z-score of dpERK with insulin": 0.23, "replicate 2, z-score of dpERK with insulin": 0.26}
{"target": "Gr59a", "reagent": 1, "replicate 1, z-score of dpERK with insulin": 0.04, "replicate 2, z-score of dpERK with insulin": -0.24}
{"target": "CG32148", "reagent": 1, "replicate 1, z-score of dpERK with insulin": 0.26, "replicate 2, z-score of dpERK with insulin": 1.05}
{"target": "Arl4", "reagent": 1, "replicate 1, z-score of dpERK with insulin": -0.01, "replicate 2, z-score of dpERK with insulin": 0.39}
{"target": "Rbf2", "reagent": 1, "replicate 1, z-score of dpERK with insulin": 0.9, "replicate 2, z-score of dpERK with insulin": 0.86}
{"target": "janB", "reagent": 1, "replicate 1, z-score of dpERK with insulin": -0.51, "replicate 2, z-score of dpERK with insulin": -0.07}
{"target": "mus302", "reagent": 1, "replicate 1, z-score of dpERK with insulin": -1.37, "replicate 2, z-score of dpERK with insulin": 1}
{"target": "Tmep", "reagent": 1, "replicate 1, z-score of dpERK with insulin": 0.48, "replicate 2, z-score of dpERK with insulin": 0.59}
{"target": "wcd", "reagent": 1, "replicate 1, z-score of dpERK with insulin": 0.25, "replicate 2, z-score of dpERK with insulin": 0.22}
{"target": "Cerk", "reagent": 1, "replicate 1, z-score of dpERK with insulin": 0.32, "replicate 2, z-score of dpERK with insulin": -0.26}
{"target": "Ir84a", "reagent": 1, "replicate 1, z-score of dpERK with insulin": -0.28, "replicate 2, z-score of dpERK with insulin": -0.08}
{"target": "link", "reagent": 1, "replicate 1, z-score of dpERK with insulin": 3.19, "replicate 2, z-score of dpERK with insulin": 2.25}
{"target": "4E-T", "reagent": 1, "replicate 1, z-score of dpERK with insulin": -1, "replicate 2, z-score of dpERK with insulin": -0.8}
{"target": "4E-T", "reagent": 2, "replicate 1, z-score of dpERK with insulin": -0.57, "replicate 2, z-score of dpERK with insulin": -0.36}
{"target": "CG8093", "reagent": 1, "replicate 1, z-score of dpERK with insulin": 0.22, "replicate 2, z-score of dpERK with insulin": 0.47}
{"target": "beta4GalT7", "reagent": 1, "replicate 1, z-score of dpERK with insulin": -0.77, "replicate 2, z-score of dpERK with insulin": 0}
{"target": "CG31743 + CG34313", "reagent": 1, "replicate 1, z-score of dpERK with insulin": -1.47, "replicate 2, z-score of dpERK with insulin": 1.27}
{"target": "CG31743 + CG34313", "reagent": 2, "replicate 1, z-score of dpERK with insulin": -0.08, "replicate 2, z-score of dpERK with insulin": 0.39}
{"target": "erm", "reagent": 1, "replicate 1, z-score of dpERK with insulin": 0.42, "replicate 2, z-score of dpERK with insulin": -0.36}
{"target": "RhoGAP16F", "reagent": 1, "replicate 1, z-score of dpERK with insulin": -0.58, "replicate 2, z-score of dpERK with insulin": 0.44}
{"target": "CG16734", "reagent": 1, "replicate 1, z-score of dpERK with insulin": -0.03, "replicate 2, z-score of dpERK with insulin": -0.33}
{"target": "CG17896", "reagent": 1, "replicate 1, z-score of dpERK with insulin": 0.03, "replicate 2, z-score of dpERK with insulin": 0.67}
{"target": "CG13331", "reagent": 1, "replicate 1, z-score of dpERK with insulin": -0.99, "replicate 2, z-score of dpERK with insulin": 0.35}
{"target": "CG11555", "reagent": 1, "replicate 1, z-score of dpERK with insulin": -0.65, "replicate 2, z-score of dpERK with insulin": -0.43}
{"target": "CG42535", "reagent": 1, "replicate 1, z-score of dpERK with insulin": 0.19, "replicate 2, z-score of dpERK with insulin": 0.22}
{"target": "fd102C", "reagent": 1, "replicate 1, z-score of dpERK with insulin": 1.06, "replicate 2, z-score of dpERK with insulin": 1.07}
{"target": "mmd", "reagent": 1, "replicate 1, z-score of dpERK with insulin": 0.2, "replicate 2, z-score of dpERK with insulin": -2.63}
{"target": "mmd", "reagent": 2, "replicate 1, z-score of dpERK with insulin": -0.7, "replicate 2, z-score of dpERK with insulin": -0.35}
{"target": "mmd", "reagent": 3, "replicate 1, z-score of dpERK with insulin": 1.01, "replicate 2, z-score of dpERK with insulin": 0.95}
{"target": "beat-Ia", "reagent": 1, "replicate 1, z-score of dpERK with insulin": -0.14, "replicate 2, z-score of dpERK with insulin": -0.28}
{"target": "nes", "reagent": 1, "replicate 1, z-score of dpERK with insulin": 0.3, "replicate 2, z-score of dpERK with insulin": 0.2}
{"target": "ND-B18", "reagent": 1, "replicate 1, z-score of dpERK with insulin": 0.81, "replicate 2, z-score of dpERK with insulin": 0.16}
{"target": "Usp15-31", "reagent": 1, "replicate 1, z-score of dpERK with insulin": 0.9, "replicate 2, z-score of dpERK with insulin": 1.38}
{"target": "Usp15-31", "reagent": 2, "replicate 1, z-score of dpERK with insulin": -3.3, "replicate 2, z-score of dpERK with insulin": -3.11}
{"target": "unc79", "reagent": 1, "replicate 1, z-score of dpERK with insulin": -0.44, "replicate 2, z-score of dpERK with insulin": -0.03}
{"target": "CG5359", "reagent": 1, "replicate 1, z-score of dpERK with insulin": 0.05, "replicate 2, z-score of dpERK with insulin": -0.06}

3 of these entries, set out differently.
CG11555
- replicate 1, z-score of dpERK with insulin: -0.65
- replicate 2, z-score of dpERK with insulin: -0.43

CG42535
- replicate 1, z-score of dpERK with insulin: 0.19
- replicate 2, z-score of dpERK with insulin: 0.22

fd102C
- replicate 1, z-score of dpERK with insulin: 1.06
- replicate 2, z-score of dpERK with insulin: 1.07
